Common to all, as to experiment: co-IP
Assay [1] concerns the target T1, full-length RanGAP2-GFP (N. benthamiana) (UniProt A5JGX6).
T1 sequence: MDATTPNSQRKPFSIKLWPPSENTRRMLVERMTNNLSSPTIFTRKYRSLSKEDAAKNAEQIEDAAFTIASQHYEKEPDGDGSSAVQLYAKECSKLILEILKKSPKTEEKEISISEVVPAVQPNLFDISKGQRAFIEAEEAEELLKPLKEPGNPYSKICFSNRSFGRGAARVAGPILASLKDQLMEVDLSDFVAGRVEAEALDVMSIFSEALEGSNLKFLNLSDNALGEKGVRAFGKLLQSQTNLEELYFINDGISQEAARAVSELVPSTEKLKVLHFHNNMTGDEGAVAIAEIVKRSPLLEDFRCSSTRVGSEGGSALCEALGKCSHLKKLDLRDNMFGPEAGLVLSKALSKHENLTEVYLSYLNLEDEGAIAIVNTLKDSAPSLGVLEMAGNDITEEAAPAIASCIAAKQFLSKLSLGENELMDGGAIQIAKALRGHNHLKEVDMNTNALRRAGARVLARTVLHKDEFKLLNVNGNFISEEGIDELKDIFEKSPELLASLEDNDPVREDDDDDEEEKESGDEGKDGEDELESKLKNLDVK

Assay [2] addresses full-length Gpa2 N-terminally tagged with 4×Myc (potato (Solanum tuberosum spp. andigena)) (UniProt Q9S7Q4).
For assay [3], the target named is full-length Rx1 tagged with 4×Myc (potato (Solanum tuberosum spp. andigena)).
Substrate in the assay “co-IP”: CC domain of Rx1 (potato (Solanum tuberosum spp. andigena))

No constants are given. Whether binding was seen depends on the method and setting. Binding seen in cells or lysates may run through a third protein. Binding calls can cover weak binding; strength is not graded here. Tags and fused reporters may be left off the sequences shown.

In the case of “coat protein of Potato Virus X strain HB (CP105), 4×HA-tagged”, the binding result in assay [1] is given as “binds”. In the case of “coat protein of Potato Virus X strain UK3 (CP106), 4×HA-tagged”, the binding entry in assay [1] is reported as “binds”. On the same count and under the same terms, the entry for “Gp-RBP-1 variant Rook4, 8×HA-tagged (Globodera pallida)” is “binds”; for “Gp-RBP-1 variant D383-1, 8×HA-tagged (Globodera pallida)” it is “binds”.

B1: full-length RanGAP2-GFP (protein, UniProt A5JGX6 1-541)
chain: MDATTPNSQRKPFSIKLWPPSENTRRMLVERMTNNLSSPTIFTRKYRSLSKEDAAKNAEQIEDAAFTIASQHYEKEPDGDGSSAVQLYAKECSKLILEILKKSPKTEEKEISISEVVPAVQPNLFDISKGQRAFIEAEEAEELLKPLKEPGNPYSKICFSNRSFGRGAARVAGPILASLKDQLMEVDLSDFVAGRVEAEALDVMSIFSEALEGSNLKFLNLSDNALGEKGVRAFGKLLQSQTNLEELYFINDGISQEAARAVSELVPSTEKLKVLHFHNNMTGDEGAVAIAEIVKRSPLLEDFRCSSTRVGSEGGSALCEALGKCSHLKKLDLRDNMFGPEAGLVLSKALSKHENLTEVYLSYLNLEDEGAIAIVNTLKDSAPSLGVLEMAGNDITEEAAPAIASCIAAKQFLSKLSLGENELMDGGAIQIAKALRGHNHLKEVDMNTNALRRAGARVLARTVLHKDEFKLLNVNGNFISEEGIDELKDIFEKSPELLASLEDNDPVREDDDDDEEEKESGDEGKDGEDELESKLKNLDVK
Consider B1, for which the binding result (in assay [2]; in assay [3]; in the assay “co-IP”) was “binds” throughout.

The values are drawn from paper doi:10.1101/2021.06.24.449730.
